Assay results as given in paper PMC3258524.
These are yes or no findings as the source states them, for the method shown. Some results given as binding are weak or reduced against the parent protein; the word gives no strength.

By UniProt entry, the sequences of proteins in these tests, tags left out. Where a name states a change or a piece, a line headed by the entry shows the natural chain unless it says otherwise. Chains listed by the source or under a name are the forms on record and can include a tag or linker. Residues count along the entry.
MITF serine-rich C-terminal activation domain S (MITF-A residues 402-520) (O75030, residues 408-526): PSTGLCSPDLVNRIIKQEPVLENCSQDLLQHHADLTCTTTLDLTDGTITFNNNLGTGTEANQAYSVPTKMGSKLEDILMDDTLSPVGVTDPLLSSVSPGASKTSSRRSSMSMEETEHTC
MITF-A activation domain AD (residues 118-297) (O75030, form named): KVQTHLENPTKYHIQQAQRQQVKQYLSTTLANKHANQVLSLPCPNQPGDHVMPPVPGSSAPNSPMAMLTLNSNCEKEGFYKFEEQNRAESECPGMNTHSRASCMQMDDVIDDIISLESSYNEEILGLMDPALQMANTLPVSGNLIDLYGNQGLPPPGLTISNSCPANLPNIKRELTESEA
MITF-M fragment M-AD (residues 1-196) (O75030, form named): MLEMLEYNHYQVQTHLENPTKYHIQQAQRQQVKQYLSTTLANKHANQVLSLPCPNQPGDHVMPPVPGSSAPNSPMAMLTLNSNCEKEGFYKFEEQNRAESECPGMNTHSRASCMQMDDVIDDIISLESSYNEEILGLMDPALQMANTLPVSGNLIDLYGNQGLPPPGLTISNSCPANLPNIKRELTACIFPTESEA
full-length MITF-A (microphthalmia-associated transcription factor, isoform A) (O75030, form named): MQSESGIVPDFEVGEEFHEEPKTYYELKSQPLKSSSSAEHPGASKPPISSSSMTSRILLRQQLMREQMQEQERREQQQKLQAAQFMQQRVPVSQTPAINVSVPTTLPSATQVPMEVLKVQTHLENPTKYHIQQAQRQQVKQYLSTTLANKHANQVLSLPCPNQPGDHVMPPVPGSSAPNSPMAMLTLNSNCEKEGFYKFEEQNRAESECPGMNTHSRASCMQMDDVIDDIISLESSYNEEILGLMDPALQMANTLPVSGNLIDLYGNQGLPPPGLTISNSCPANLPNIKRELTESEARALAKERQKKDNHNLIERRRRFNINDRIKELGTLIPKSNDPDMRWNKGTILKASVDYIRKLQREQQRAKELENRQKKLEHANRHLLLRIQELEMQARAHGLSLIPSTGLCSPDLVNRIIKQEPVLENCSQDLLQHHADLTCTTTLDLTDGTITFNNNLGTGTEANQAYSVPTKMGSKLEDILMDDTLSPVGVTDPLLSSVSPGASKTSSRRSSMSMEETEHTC
MITF-A fragment A-B1b-AD (residues 1-297) (O75030, form named): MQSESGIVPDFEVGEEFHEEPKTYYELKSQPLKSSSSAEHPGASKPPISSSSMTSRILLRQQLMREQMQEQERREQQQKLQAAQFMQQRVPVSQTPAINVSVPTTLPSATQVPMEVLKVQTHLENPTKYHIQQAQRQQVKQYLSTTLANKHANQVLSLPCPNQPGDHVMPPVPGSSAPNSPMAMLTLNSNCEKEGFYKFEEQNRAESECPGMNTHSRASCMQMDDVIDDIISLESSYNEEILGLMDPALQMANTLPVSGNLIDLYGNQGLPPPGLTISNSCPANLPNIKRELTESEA
MITF-A fragment B1b-AD (residues 36-297) (O75030, form named): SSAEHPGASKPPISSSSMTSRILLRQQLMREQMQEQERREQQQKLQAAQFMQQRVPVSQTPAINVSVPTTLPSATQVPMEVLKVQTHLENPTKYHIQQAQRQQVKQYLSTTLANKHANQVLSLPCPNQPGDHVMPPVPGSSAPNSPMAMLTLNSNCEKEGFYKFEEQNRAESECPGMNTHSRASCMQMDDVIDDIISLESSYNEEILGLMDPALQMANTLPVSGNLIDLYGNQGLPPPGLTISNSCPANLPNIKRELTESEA
full-length MITF-M (microphthalmia-associated transcription factor, isoform M) (O75030, form named): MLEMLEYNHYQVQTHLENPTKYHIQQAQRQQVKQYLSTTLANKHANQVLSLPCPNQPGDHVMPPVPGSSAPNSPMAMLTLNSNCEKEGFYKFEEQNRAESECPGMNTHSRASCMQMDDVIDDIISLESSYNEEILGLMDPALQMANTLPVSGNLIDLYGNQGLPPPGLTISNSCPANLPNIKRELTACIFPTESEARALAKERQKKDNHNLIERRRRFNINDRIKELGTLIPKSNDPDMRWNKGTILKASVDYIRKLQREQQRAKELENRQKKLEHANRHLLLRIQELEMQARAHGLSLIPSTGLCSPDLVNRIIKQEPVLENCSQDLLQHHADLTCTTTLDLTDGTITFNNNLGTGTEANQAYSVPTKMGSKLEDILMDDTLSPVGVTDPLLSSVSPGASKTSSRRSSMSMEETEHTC
OTX2 DNA-binding homeodomain HD (residues 37-109) (P32243-2, form named): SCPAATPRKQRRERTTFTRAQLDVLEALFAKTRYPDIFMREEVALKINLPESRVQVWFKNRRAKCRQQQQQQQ
full-length OTX2 (orthodenticle homeobox 2) (P32243-2, form named): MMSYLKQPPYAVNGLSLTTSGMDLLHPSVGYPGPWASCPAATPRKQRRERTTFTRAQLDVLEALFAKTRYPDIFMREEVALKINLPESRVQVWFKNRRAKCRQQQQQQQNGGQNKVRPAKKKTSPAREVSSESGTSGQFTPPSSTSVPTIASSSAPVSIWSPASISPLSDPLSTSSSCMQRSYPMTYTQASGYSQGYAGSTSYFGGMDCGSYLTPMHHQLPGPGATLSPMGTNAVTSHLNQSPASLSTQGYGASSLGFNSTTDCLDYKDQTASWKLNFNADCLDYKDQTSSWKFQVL

Assays:
Experiment in all cases: two-hybrid; Matchmaker GAL4 System 3 in yeast; MITF constructs in pGBKT7 (GAL4 DNA-binding domain) as bait, OTX2 constructs in pGADT7 (GAL4 activation domain) as prey; beta-galactosidase reporter, compared with autoactivation of bait or prey alone
[1] = target: MITF serine-rich C-terminal activation domain S (MITF-A residues 402-520) (UniProt O75030)
[2] = target: MITF-A activation domain AD (residues 118-297) (UniProt O75030)
[3] = target: MITF-M fragment M-AD (residues 1-196) (UniProt O75030)
[4] = target: full-length MITF-A (microphthalmia-associated transcription factor, isoform A) (UniProt O75030)
[5] = target: MITF-A fragment A-B1b-AD (residues 1-297) (UniProt O75030)
[6] = target: MITF-A fragment B1b-AD (residues 36-297) (UniProt O75030)
[7] = target: full-length MITF-M (microphthalmia-associated transcription factor, isoform M) (UniProt O75030)

| binding [1] | binding [2] | binding [3] | binding [4] | binding [5] | binding [6] | binding [7] | Substance |
| --- | --- | --- | --- | --- | --- | --- | --- |
| binds | binds | – | – | – | – | – | OTX2 DNA-binding homeodomain HD (residues 37-109) (from UniProt P32243-2 37-109) (domain or fragment) |
| binds | binds | binds | binds | binds | binds | binds | full-length OTX2 (orthodenticle homeobox 2) (from UniProt P32243-2 1-297) |
